Results are given in words; binding and its absence hold for the method and conditions named. In cells and extracts the contact can be indirect. A yes stands for co-enrichment or nearness to the bait. Other partners may have been found.
B1: Usp22 (protein, UniProt Q9UPT9 1-525)
chain: MVSRPEPEGEAMDAELAVAPPGCSHLGSFKVDNWKQNLRAIYQCFVWSGTAEARKRKAKSCICHVCGVHLNRLHSCLYCVFFGCFTKKHIHEHAKAKRHNLAIDLMYGGIYCFLCQDYIYDKDMEIIAKEEQRKAWKMQGVGEKFSTWEPTKRELELLKHNPKRRKITSNCTIGLRGLINLGNTCFMNCIVQALTHTPLLRDFFLSDRHRCEMQSPSSCLVCEMSSLFQEFYSGHRSPHIPYKLLHLVWTHARHLAGYEQQDAHEFLIAALDVLHRHCKGDDNGKKANNPNHCNCIIDQIFTGGLQSDVTCQVCHGVSTTIDPFWDISLDLPGSSTPFWPLSPGSEGNVVNGESHVSGTTTLTDCLRRFTRPEHLGSSAKIKCSGCHSYQESTKQLTMKKLPIVACFHLKRFEHSAKLRRKITTYVSFPLELDMTPFMASSKESRMNGQYQQPTDSLNNDNKYSLFAVVNHQGTLESGHYTSFIRQHKDQWFKCDDAIITKASIKDVLDSEGYLLFYHKQFLEYE
B2: Mybbp1a (protein, UniProt Q9BQG0 1-1328)
chain: MESRDPAQPMSPGEATQSGARPADRYGLLKHSREFLDFFWDIAKPEQETRLAATEKLLEYLRGRPKGSEMKYALKRLITGLGVGRETARPCYSLALAQLLQSFEDLPLCSILQQIQEKYDLHQVKKAMLRPALFANLFGVLALFQSGRLVKDQEALMKSVKLLQALAQYQNHLQEQPRKALVDILSEVSKATLQEILPEVLKADLNIILSSPEQLELFLLAQQKVPSKLKKLVGSVNLFSDENVPRLVNVLKMAASSVKKDRKLPAIALDLLRLALKEDKFPRFWKEVVEQGLLKMQFWPASYLCFRLLGAALPLLTKEQLHLVMQGDVIRHYGEHVCTAKLPKQFKFAPEMDDYVGTFLEGCQDDPERQLAVLVAFSSVTNQGLPVTPTFWRVVRFLSPPALQGYVAWLRAMFLQPDLDSLVDFSTNNQKKAQDSSLHMPERAVFRLRKWIIFRLVSIVDSLHLEMEEALTEQVARFCLFHSFFVTKKPTSQIPETKHPFSFPLENQAREAVSSAFFSLLQTLSTQFKQAPGQTQGGQPWTYHLVQFADLLLNHSHNVTTVTPFTAQQRQAWDRMLQTLKELEAHSAEARAAAFQHLLLLVGIHLLKSPAESCDLLGDIQTCIRKSLGEKPRRSRTKTIDPQEPPWVEVLVEILLALLAQPSHLMRQVARSVFGHICSHLTPRALQLILDVLNPETSEDENDRVVVTDDSDERRLKGAEDKSEEGEDNRSSESEEESEGEESEEEERDGDVDQGFREQLMTVLQAGKALGGEDSENEEELGDEAMMALDQSLASLFAEQKLRIQARRDEKNKLQKEKALRRDFQIRVLDLVEVLVTKQPENALVLELLEPLLSIIRRSLRSSSSKQEQDLLHKTARIFTHHLCRARRYCHDLGERAGALHAQVERLVQQAGRQPDSPTALYHFNASLYLLRVLKGNTAEGCVHETQEKQKAGTDPSHMPTGPQAASCLDLNLVTRVYSTALSSFLTKRNSPLTVPMFLSLFSRHPVLCQSLLPILVQHITGPVRPRHQACLLLQKTLSMREVRSCFEDPEWKQLMGQVLAKVTENLRVLGEAQTKAQHQQALSSLELLNVLFRTCKHEKLTLDLTVLLGVLQGQQQSLQQGAHSTGSSRLHDLYWQAMKTLGVQRPKLEKKDAKEIPSATQSPISKKRKKKGFLPETKKRKKRKSEDGTPAEDGTPAATGGSQPPSMGRKKRNRTKAKVPAQANGTPTTKSPAPGAPTRSPSTPAKSPKLQKKNQKPSQVNGAPGSPTEPAGQKQHQKALPKKGVLGKSPLSALARKKARLSLVIRSPSLLQSGAKKKAQVRKAGKP
B3: Hmgxb4 (protein, UniProt Q9UGU5 1-601)
chain: MAYDDSVKKEDCFDGDHTFEDIGLAAGRSQREKKRSYKDFLREEEEIAAQVRNSSKKKLKDSELYFLGTDTHKKKRKHSSDDYYYGDISSLESSQKKKKKSSPQSTDTAMDLLKAITSPLAAGSKPSKKTGEKSSGSSSHSESKKEHHRKKVSGSSGELPLEDGGSHKSKKMKPLYVNTETLTLREPDGLKMKLILSPKEKGSSSVDEESFQYPSQQATVKKSSKKSARDEQGALLLGHELQSFLKTARKKHKSSSDAHSSPGPEGCGSDASQFAESHSANLDLSGLEPILVESDSSSGGELEAGELVIDDSYREIKKKKKSKKSKKKKDKEKHKEKRHSKSKRSLGLSAVPVGEVTVTSGPPPSIPYAGAAAPPLPLPGLHTDGHSEKKKKKEEKDKERERGEKPKKKNMSAYQVFCKEYRVTIVADHPGIDFGELSKKLAEVWKQLPEKDKLIWKQKAQYLQHKQNKAEATTVKRKASSSEGSMKVKASSVGVLSPQKKSPPTTMLLPASPAKAPETEPIDVAAHLQLLGESLSLIGHRLQETEGMVAVSGSLSVLLDSIICALGPLACLTTQLPELNGCPKQVLSNTLDNIAYIMPGL
B4: Ptplad1 (protein, UniProt Q9P035 1-362)
chain: MENQVLTPHVYWAQRHRELYLRVELSDVQNPAISITENVLHFKAQGHGAKGDNVYEFHLEFLDLVKPEPVYKLTQRQVNITVQKKVSQWWERLTKQEKRPLFLAPDFDRWLDESDAEMELRAKEEERLNKLRLESEGSPETLTNLRKGYLFMYNLVQFLGFSWIFVNLTVRFCILGKESFYDTFHTVADMMYFCQMLAVVETINAAIGVTTSPVLPSLIQLLGRNFILFIIFGTMEEMQNKAVVFFVFYLWSAIEIFRYSFYMLTCIDMDWKVLTWLRYTLWIPLYPLGCLAEAVSVIQSIPIFNETGRFSFTLPYPVKIKVRFSFFLQIYLIMIFLGLYINFRHLYKQRRRRYGQKKKKIH
B5: Timmdc1 (protein, UniProt Q9NPL8 1-285)
chain: MEVPPPAPRSFLCRALCLFPRVFAAEAVTADSEVLEERQKRLPYVPEPYYPESGWDRLRELFGKDEQQRISKDLANICKTAATAGIIGWVYGGIPAFIHAKQQYIEQSQAEIYHNRFDAVQSAHRAATRGFIRYGWRWGWRTAVFVTIFNTVNTSLNVYRNKDALSHFVIAGAVTGSLFRINVGLRGLVAGGIIGALLGTPVGGLLMAFQKYSGETVQERKQKDRKALHELKLEEWKGRLQVTEHLPEKIESSLQEDEPENDAKKIEALLNLPRNPSVIDKQDKD
B6: Dis3 (protein, UniProt Q9Y2L1 1-958)
chain: MLKSKTFLKKTRAGGVMKIVREHYLRDDIGCGAPGCAACGGAHEGPALEPQPQDPASSVCPQPHYLLPDTNVLLHQIDVLEDPAIRNVIVLQTVLQEVRNRSAPVYKRIRDVTNNQEKHFYTFTNEHHRETYVEQEQGENANDRNDRAIRVAAKWYNEHLKKMSADNQLQVIFITNDRRNKEKAIEEGIPAFTCEEYVKSLTANPELIDRLACLSEEGNEIESGKIIFSEHLPLSKLQQGIKSGTYLQGTFRASRENYLEATVWIHGDNEENKEIILQGLKHLNRAVHEDIVAVELLPKSQWVAPSSVVLHDEGQNEEDVEKEEETERMLKTAVSEKMLKPTGRVVGIIKRNWRPYCGMLSKSDIKESRRHLFTPADKRIPRIRIETRQASTLEGRRIIVAIDGWPRNSRYPNGHFVRNLGDVGEKETETEVLLLEHDVPHQPFSQAVLSFLPKMPWSITEKDMKNREDLRHLCICSVDPPGCTDIDDALHCRELENGNLEVGVHIADVSHFIRPGNALDQESARRGTTVYLCEKRIDMVPELLSSNLCSLKCDVDRLAFSCIWEMNHNAEILKTKFTKSVINSKASLTYAEAQLRIDSANMNDDITTSLRGLNKLAKILKKRRIEKGALTLSSPEVRFHMDSETHDPIDLQTKELRETNSMVEEFMLLANISVAKKIHEEFSEHALLRKHPAPPPSNYEILVKAARSRNLEIKTDTAKSLAESLDQAESPTFPYLNTLLRILATRCMMQAVYFCSGMDNDFHHYGLASPIYTHFTSPIRRYADVIVHRLLAVAIGADCTYPELTDKHKLADICKNLNFRHKMAQYAQRASVAFHTQLFFKSKGIVSEEAYILFVRKNAIVVLIPKYGLEGTVFFEEKDKPNPQLIYDDEIPSLKIEDTVFHVFDKVKVKIMLDSSNLQHQKIRMSLVEPQIPGISIPTDTSNMDLNGPKKKKMKLGK

Target: Biotin-FOXC1 (mouse) (UniProt Q61572)
Assay: affinity purification with mass spectrometry; streptavidin-agarose precipitation of biotinylated FOXC1 from nuclear extract of stable HEK293T cells (293T-Biotin-FOXC1); IP350 buffer (350 mM NaCl, 20 mM Tris-HCl pH 7.5, 0.5% NP40, 1 mM EDTA, 10% glycerin); SDS-PAGE, LC-ESI-MS/MS; proteins of the 293T-Biotin control deducted

binding, binds:
B1, B2, B3, B4, B5, B6

— PMC7956269
